Laboratory results: PubChem BioAssay AID1053208 (Peter MacCallum Cancer Centre, 2014)
Assay: 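Synthetic lethal interactions between gene loss and doxorubicin in osteosarcoma cells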 (primary screen). Cell system: mouse osteosarcoma cells, early-passage culture from an engineered mouse model of fibroblastic bone tumour. Knock-down reagent: siRNA pool against mouse genes, 40 nM. Duration: about 120 h (48 h before drug, then 72 h with drug). Treatment: doxorubicin 100 nM for 72 h, roughly 30-40% inhibitory dose. Measurement: 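Viability read as ATP luminescence after 72 h of 100 nM doxorubicin or none, duplicate wells averaged, scaled to non-targeting siRNA, then expressed as robust z-scores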. Direction: viability z-score with doxorubicin: higher = more viable cells under doxorubicin; viability z-score without drug: higher = more viable cells with knock-down alone. Call rule: 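Called active if knock-down leaves viability unchanged without drug (z within -2 to 2) but lowers it with doxorubicin (z at or under -2)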.
This is an unselected part of about 17,000 reagents tested. 788 of them (4.7%) count as active. 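Calls rest on z-score classes alone; an extra cut-off of viability at most 70% of control was not applied to them.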 Not all columns of the deposit are shown.

| Gene | PubChem SID | combined z-score class | viability z-score with doxorubicin | viability z-score without drug | Call |
| --- | --- | --- | --- | --- | --- |
| Muc20 | SID152332092 | low cell count with and without drug | -2.25 | -2.19 | inactive |
| RASIP1 | SID152306110 | high cell count without drug only | 1.91 | 2.19 | inactive |
| Cdk4 | SID152339507 | no change with or without drug | 0.67 | -0.17 | inactive |
| Nudt4 | SID152269735 | no change with or without drug | -0.45 | -1.18 | inactive |
| Trim9 | SID152262216 | no change with or without drug | 0.22 | 0.17 | inactive |
| Trim9 | SID152316834 | no change with or without drug | -0.11 | -0.17 | inactive |
| Plekhh2 | SID152330497 | no change with or without drug | 0.45 | 1.18 | inactive |
| Nr0b2 | SID152273982 | no change with or without drug | 0.22 | -0.17 | inactive |
| Cirsr | SID152262441 | no change with or without drug | 0.11 | 0.84 | inactive |
| Maf1 | SID152262875 | no change with or without drug | -1.46 | 0 | inactive |
| Peg12 | SID152260882 | low cell count with doxorubicin only | -2.81 | -0.17 | active |
| Pcsk9 | SID152278901 | no change with or without drug | -0.22 | 1.18 | inactive |
| Ephb2 | SID152332618 | no change with or without drug | -0.22 | -0.51 | inactive |
| Tubgcp2 | SID152295537 | low cell count without drug only | -0.34 | -2.87 | inactive |
| Fam107a | SID152330667 | no change with or without drug | 0.22 | 0.17 | inactive |
| Gucy2c | SID152286935 | no change with or without drug | 0.45 | -0.17 | inactive |
| Vcp | SID152292777 | low cell count with doxorubicin only | -5.06 | -1.52 | active |
| Vmn1r47 | SID152324081 | no change with or without drug | 1.01 | 0.17 | inactive |
| Cdh1 | SID152325108 | no change with or without drug | -0.45 | 0.17 | inactive |
| Snx3 | SID152305807 | no change with or without drug | -0.45 | 0.17 | inactive |
